Reference: paper PMC6310259
These are yes or no findings as the source states them, for the method shown. Binding calls can cover weak binding; strength is not graded here. Where a sequence is shown, tags or fusion partners need not be part of it.

Biological target: T1, NPR2, yeast two-hybrid fusion (Arabidopsis thaliana) (UniProt Q9SZI3)
T1 sequence: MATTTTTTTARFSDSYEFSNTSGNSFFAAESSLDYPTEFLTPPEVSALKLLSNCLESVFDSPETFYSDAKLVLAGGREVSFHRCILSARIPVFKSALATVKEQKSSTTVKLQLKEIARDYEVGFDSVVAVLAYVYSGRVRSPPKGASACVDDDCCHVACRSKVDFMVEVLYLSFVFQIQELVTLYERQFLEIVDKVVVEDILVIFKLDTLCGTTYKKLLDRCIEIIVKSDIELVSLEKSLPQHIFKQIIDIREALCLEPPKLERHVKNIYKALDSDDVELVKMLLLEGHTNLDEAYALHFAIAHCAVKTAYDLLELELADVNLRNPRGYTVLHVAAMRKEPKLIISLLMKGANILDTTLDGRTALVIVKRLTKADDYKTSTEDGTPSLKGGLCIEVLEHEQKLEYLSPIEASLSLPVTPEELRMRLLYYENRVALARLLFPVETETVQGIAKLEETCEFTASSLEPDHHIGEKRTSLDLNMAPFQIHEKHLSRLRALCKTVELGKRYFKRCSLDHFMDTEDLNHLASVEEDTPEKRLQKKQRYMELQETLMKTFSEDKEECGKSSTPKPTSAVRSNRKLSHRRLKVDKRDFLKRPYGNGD
Test: two-hybrid; yeast with one cDNA in pDEST22 and one in pDEST32; growth on -His with 100 μM SA or 100 μM HBA, without 3AT (Fig 4b)

binding | Substance
no binding | β carbonic anhydrase 3 (CA3), yeast two-hybrid fusion (Arabidopsis thaliana)
binds | β carbonic anhydrase 1 (βCA1f), yeast two-hybrid fusion (Arabidopsis thaliana)
